This is an account of results in paper doi:10.1101/2021.03.31.437858.

These are yes or no findings as the source states them, for the method shown. In cells and extracts the contact can be indirect. Binding can be weak; no strength is given.

In the experiment the target is T1, adenine nucleotide carrier isoform 1 (SLC25A4) (bovine (endogenous in bovine heart mitochondria)) (UniProt P02722).
T1 sequence: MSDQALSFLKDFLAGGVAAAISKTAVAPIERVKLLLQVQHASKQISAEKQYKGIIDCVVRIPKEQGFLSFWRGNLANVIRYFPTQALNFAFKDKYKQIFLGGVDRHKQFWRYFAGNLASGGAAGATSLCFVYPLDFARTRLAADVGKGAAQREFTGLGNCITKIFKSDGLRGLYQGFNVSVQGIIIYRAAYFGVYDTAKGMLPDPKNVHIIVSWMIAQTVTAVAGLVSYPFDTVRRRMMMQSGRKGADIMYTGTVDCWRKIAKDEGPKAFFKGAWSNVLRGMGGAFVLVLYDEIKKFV
Briefly: cross-linking.

As to Apoptosis Inducing Factor 1 (AIFM1), the binding result is reported as “binds”.
